Assay results published in patent US20160264648A1 (OSAKA UNIVERSITY, published 2016).
Results are given in words; binding and its absence hold for the method and conditions named. Some entries that bind do so weakly or less than the wild type.

Sequences of proteins named here, by UniProt entry; tags and fusion partners are left off. A change or cut given only in a name is not applied to a line headed by its entry. Residues count along the entry.
UniProt P03457: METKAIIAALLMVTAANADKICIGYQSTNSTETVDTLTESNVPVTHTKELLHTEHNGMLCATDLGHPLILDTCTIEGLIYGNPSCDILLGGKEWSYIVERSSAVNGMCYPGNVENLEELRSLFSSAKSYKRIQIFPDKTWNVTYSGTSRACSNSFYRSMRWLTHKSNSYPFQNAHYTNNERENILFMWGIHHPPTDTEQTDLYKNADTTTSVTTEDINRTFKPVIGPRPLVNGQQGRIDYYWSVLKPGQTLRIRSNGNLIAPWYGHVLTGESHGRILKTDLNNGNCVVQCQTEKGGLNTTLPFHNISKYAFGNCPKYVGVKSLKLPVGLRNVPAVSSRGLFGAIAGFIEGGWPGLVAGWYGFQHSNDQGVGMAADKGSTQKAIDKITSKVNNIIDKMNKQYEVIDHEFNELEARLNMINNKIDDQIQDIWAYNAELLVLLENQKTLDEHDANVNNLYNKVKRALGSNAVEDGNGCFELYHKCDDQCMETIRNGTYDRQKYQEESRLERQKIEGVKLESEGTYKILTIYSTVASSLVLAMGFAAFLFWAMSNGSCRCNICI
UniProt P03452, residues 18-565: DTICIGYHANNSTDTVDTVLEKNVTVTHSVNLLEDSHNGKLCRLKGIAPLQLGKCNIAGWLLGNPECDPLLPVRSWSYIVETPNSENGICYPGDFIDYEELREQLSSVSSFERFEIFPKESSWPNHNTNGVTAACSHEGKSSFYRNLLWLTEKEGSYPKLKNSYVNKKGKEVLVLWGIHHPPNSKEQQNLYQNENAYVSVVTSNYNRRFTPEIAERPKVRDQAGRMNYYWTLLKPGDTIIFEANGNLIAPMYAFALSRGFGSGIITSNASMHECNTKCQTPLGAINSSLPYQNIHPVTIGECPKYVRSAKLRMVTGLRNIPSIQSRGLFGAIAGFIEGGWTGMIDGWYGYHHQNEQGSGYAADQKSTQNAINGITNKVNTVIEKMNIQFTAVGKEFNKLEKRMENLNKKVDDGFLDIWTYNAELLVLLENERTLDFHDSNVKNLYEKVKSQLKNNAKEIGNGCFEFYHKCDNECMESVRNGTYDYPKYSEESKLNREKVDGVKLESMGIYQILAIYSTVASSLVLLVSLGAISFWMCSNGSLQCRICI

Legend:
[1] = biological target: hemagglutinin (HA) of influenza A virus A/Turkey/Wisconsin/1/1966 (H9N2) (influenza A virus A/Turkey/Wisconsin/1/1966 (H9N2)) (UniProt P03457); test: IFA on virus-infected MDCK cells
[2] = biological target: hemagglutinin (HA) of influenza A virus A/PR8/1934 (seasonal H1N1) (influenza A virus A/PR8/1934 (H1N1sea)) (UniProt P03452); test: IFA on virus-infected MDCK cells

B1: human monoclonal antibody (HuMAb) 2H5 (antibody, V domains shown)
VH: QVQLVQSGAEVKKPGSSVKVSCKSSGGNFNNYAVSWVRQAPGQGLEWMGGISPIFGSTNHAQKFQGRVTISADIFTNTAYMELSSLRSDDTAIYYCARGRGYYFYHAMDVWGQGSTVTVSS
VL: QSVLTQPPSVSAAPGQKVTISCSGSSSNIGHNFVSWYQQLPATAPKLLIYDTDKRPSGIPDRFSGSKSGTSATLGITGLQTGDEADYYCGTWDSSLSSVIFGGGTKLTVL
binding [1]: binds | binding [2]: binds
